Results: patent US6593108B1 (priority 1999, dated 2003)
These are yes or no findings as the source states them, for the method shown. Some results given as binding are weak or reduced against the parent protein; the word gives no strength.

Chains of the proteins cited; added tags and fusions are not shown. Lines headed by an entry give the natural chain unless they say otherwise; changes in a name come on top.
UniProt Q969V1: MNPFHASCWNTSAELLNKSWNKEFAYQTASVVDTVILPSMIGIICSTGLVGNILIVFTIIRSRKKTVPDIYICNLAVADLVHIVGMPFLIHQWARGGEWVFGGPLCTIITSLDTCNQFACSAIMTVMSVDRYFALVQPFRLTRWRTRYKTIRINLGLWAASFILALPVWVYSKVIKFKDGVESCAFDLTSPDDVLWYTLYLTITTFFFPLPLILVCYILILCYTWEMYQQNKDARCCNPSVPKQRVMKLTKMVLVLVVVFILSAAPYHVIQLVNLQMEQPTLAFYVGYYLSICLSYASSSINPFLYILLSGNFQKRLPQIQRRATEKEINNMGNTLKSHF
UniProt P20382: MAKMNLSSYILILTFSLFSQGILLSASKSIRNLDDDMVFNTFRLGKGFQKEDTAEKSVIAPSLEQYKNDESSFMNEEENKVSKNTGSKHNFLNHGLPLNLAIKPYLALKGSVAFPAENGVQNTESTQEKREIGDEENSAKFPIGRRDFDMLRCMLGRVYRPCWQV

Target: HG67 (melanin-concentrating hormone receptor 2) (human) (UniProt Q969V1)
Assay: radioligand binding to transfected HEK293T monolayer cells, 100 pM [125I]-MCH

[125I]-MCH (from UniProt P20382 147-165) (peptide)
binding: binds
